From patent US8609695B2, “Methods of treating and/or suppressing insulin resistance” (Endorecherche, Inc., priority 1999, dated 2013)
Several values for one entry are separate records, joined by “and”; a condition that tells them apart may be missing. Equal entries are not always repeated. For some of these results: The name of at least one read-out is uncertain. For some of these results: At least one compound was matched to its structure with a doubt left.

Assays:
[1] = tested on: human endometrial adenocarcinoma Ishikawa cells; test: Alkaline phosphatase activity in Ishikawa cells (Example 11); type: cell-based; conditions: five days incubation, intrinsic estrogenic activity
Description: The human Ishikawa cell line derived from a well differentiated endometrial adenocarcinoma was kindly provided by Dr. Erlio Gurpide, The Mount Sinai Medical Center, New York, N.Y. The Ishikawa cells were routinely maintained in Eagle's Minimum Essential Medium (MEM) containing 5% (vol/vol) FBS and supplemented with 100 U/ml penicillin, 100 μg/ml streptomycin, 0.1 mM Non-essential Amino Acids solution. Cells were plated in Falcon T75 flasks at a density of 1.5×10^6 cells at 37 C.
Twenty four hours before the start of an experiment, the medium of near confluent Ishikawa cells was replaced by fresh estrogen-free basal medium (EFBM) consisting of a 1:1 (v:v) mixture of phenol red-free Ham's F-12 and Dulbecco's Modified Eagle's Medium (DMEM) supplemented with 100 U/mL penicillin, 100 μg/mL Streptomycin, 2 mM glutamine, and 5% FBS treated twice with dextran-coated charcoal to remove endogenous steroids. Cells were then harvested by 0.1% pancreatin (Sigma) and 0.25 mM HEPES, resuspended in EFBM and plated in Falcon 96 well flat-bottomed microtiter plates at a density of 2.2×10^4 cells/well in a volume of 100 μl and allowed to adhere to the surface of the plates for 24 h. Thereafter, medium was replaced with fresh EFBM containing the indicated concentrations of compounds in a final volume of 200 μl. Cells were incubated for five days, with a medium change after 48 h.
At the end of the incubation period, microtiter plates were inverted and growth medium was decanted. The plates were rinsed with 200 μL by well of PBS (0.15M NaCl, 10 mM sodium phosphate, pH 7.4). PBS was then removed from the plates while carefully leaving some residual PBS, and the wash procedure was repeated once. The buffered saline was then decanted, and the inverted plates were blotted gently on a paper towel. […] Plates were monitored at 405 nm in an enzyme-linked immunosorbent assay plate reader (BIO-RAD, model 2550 EIA Reader).
Dose-response curves as well as IC50 values were calculated using a weighted iterative nonlinear squares regression.

[2] = tested on: ovariectomized rats; test: 20-day treatment with EM-652.HCl, body fat, body weight and energy balance (Example 3); type: in vivo, rat; conditions: 20 days
Description: Eight to ten week-old female Sprague-Dawley rats (Crl:CD(SD)Br) (Charles River Laboratory, St-Constant, Canada) weighing approximately 200-225 g at the start of treatment were used. The animals were acclimatized to the environmental conditions (temperature: 22±3° C.; 10-h light-14-h dark cycles, lights on at 06:00 h) for 1 week before starting the experiment. The animals were housed individually in stainless steel cages of conventional design and were allowed free access to tap water and a high carbohydrate mixed diet composed of (g/100 g): Corn starch, 31.2; Dextrose, 31.2; Casein, 20.0; corn oil, 6.4; dl-Methionine, 0.3; Vitamine mix, 1.0; AIN-76 mineral mix, 4.9 and fiber, 5.0. The experiment was conducted in a Canadian Council on Animal Care approved facility in accordance with the CCAC Guide for Care and Use of Experimental Animals.
On day 1 of the study, the animals of the appropriate groups were bilaterally ovariectomized (OVX) under isoflurane anesthesia. […] The treatment with EM-652.HCl or vehicle alone (0.4% methylcellulose in water) was initiated on day 2 of the study. The compound or vehicle was given once daily by oral gavage in 0.5 ml/rat for 20 days. Body weights and food consumption were recorded every 2 days.
Approximately 24 hours after the last dosing, overnight fasted animals were anesthesized with ketamine-xylazine and blood drawn by cardiac puncture. The blood was collected as well as white and brown adipose tissues.
Body weight, food intake, and body gains in energy, fat, and protein were determined according to Deshaies et al, Am. J. Physiol., 1997; 273, E355-E362 (1997).
Lipoprotein lipase activities were determined according to Deshaies et al, Am. J. Physiol., 1997; 273, E355-E362 (1997).

| SMILES | Stimulation of alkaline phosphatase by tested compounds % of 1 nM E2 stimulation [1] | Stimulation of alkaline phosphatase by tested compounds % of 1 nM E2 stimulation ([1]; listed as Raloxifene LY 156758) | Ovx-induced insulin resistance (fasting hyperinsulinemia and hyperglycemia) ([2]; FIG. 5) | decrease in soleus muscle lipoprotein lipase by Ovx ([2]; FIG. 8) | soleus weight increase by Ovx ([2]; FIG. 8) | OVX increase in mass of inguinal and retroperitoneal adipose tissues ([2]; FIGS. 6A and 6C) | body weight gain after ovariectomy ([2]; OVX rats, FIG. 2A) | fat gain after ovariectomy ([2]; OVX rats, FIG. 2C) | cumulative food intake ([2]; OVX rats, FIG. 3) |
| --- | --- | --- | --- | --- | --- | --- | --- | --- | --- |
| COc1ccc(-c2sc3cc(O)ccc3c2Oc2ccc(OCCN3CCCCC3)cc2)cc1.Cl [LY 353381] | 16 % of 1 nM E2 stimulation and 15.5 ± 0.25 (5) % of 1 nM E2 stimulation |  |  |  |  |  |  |  |  |
| Cl.O=C(c1ccc(OCCN2CCCCC2)cc1)c1c(-c2ccc(O)cc2)sc2cc(O)ccc12 [Raloxifene] | 13 % of 1 nM E2 stimulation | 12.8 ± 1.7 (8) % of 1 nM E2 stimulation |  |  |  |  |  |  |  |
| C[C@]12CC[C@@H]3c4ccc(O)cc4CC[C@H]3[C@@H]1CC[C@@H]2O [E2, estradiol] |  |  | prevented | prevented | prevented | less important | smaller effect | smaller effect | partially prevented |
